These are yes or no findings as the source states them, for the method shown. Some binding calls cover weakened binding; strength is not graded here. For some of these results: Tags and fused reporters may be left off the sequences shown.

In article PMC4703059 one finds binding data, which are given here for 2 molecules.

The target of experiment [1] is Lst4 longin domain from K. lactis (aa58-226) (Kluyveromyces lactis) (UniProt Q6CXP4). Nature of the experiment: AUC; Beckman-Coulter XL-1, 40 000 rcf, 20°C, 300 absorbance scans, fitted with SEDFIT; both purified.
Experiment [2] has as its target T1, Lst4 (LexA DNA binding domain fusion, pLexPD) (S. cerevisiae) (UniProt P34239).
T1 sequence: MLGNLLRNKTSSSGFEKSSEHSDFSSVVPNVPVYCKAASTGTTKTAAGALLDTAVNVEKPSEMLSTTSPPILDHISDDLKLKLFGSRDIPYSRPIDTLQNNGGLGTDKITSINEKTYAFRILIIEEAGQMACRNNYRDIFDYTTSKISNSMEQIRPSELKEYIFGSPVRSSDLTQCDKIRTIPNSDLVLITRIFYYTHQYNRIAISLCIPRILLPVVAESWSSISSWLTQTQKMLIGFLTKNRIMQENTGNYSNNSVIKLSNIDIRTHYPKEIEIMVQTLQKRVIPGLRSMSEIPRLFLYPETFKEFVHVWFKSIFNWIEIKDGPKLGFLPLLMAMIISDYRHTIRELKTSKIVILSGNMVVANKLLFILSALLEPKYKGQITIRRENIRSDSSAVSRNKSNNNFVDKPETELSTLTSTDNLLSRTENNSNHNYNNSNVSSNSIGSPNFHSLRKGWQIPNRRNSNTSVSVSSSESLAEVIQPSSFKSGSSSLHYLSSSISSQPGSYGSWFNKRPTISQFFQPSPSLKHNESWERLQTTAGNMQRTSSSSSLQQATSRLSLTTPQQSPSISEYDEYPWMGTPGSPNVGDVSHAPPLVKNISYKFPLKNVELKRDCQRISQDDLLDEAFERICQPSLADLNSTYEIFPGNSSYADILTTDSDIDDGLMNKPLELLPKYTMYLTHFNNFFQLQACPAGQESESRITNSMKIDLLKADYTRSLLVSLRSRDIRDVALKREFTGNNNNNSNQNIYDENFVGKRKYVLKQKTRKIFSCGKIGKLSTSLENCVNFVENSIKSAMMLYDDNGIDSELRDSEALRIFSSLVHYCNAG
As to the kind of experiment: two-hybrid; Lst7 as prey in pACT2 (GAL activation domain); Lst4, its truncations and COPII coat genes as bait in pLexPD (LexA DNA binding domain); L40 reporter strain; serial dilutions spotted on plates with and without histidine; LacZ beta-galactosidase assay as second reporter.

Experiment [3] deals with T2, Sec24 (LexA DNA binding domain fusion, pLexPD) (UniProt P40482).
T2 sequence: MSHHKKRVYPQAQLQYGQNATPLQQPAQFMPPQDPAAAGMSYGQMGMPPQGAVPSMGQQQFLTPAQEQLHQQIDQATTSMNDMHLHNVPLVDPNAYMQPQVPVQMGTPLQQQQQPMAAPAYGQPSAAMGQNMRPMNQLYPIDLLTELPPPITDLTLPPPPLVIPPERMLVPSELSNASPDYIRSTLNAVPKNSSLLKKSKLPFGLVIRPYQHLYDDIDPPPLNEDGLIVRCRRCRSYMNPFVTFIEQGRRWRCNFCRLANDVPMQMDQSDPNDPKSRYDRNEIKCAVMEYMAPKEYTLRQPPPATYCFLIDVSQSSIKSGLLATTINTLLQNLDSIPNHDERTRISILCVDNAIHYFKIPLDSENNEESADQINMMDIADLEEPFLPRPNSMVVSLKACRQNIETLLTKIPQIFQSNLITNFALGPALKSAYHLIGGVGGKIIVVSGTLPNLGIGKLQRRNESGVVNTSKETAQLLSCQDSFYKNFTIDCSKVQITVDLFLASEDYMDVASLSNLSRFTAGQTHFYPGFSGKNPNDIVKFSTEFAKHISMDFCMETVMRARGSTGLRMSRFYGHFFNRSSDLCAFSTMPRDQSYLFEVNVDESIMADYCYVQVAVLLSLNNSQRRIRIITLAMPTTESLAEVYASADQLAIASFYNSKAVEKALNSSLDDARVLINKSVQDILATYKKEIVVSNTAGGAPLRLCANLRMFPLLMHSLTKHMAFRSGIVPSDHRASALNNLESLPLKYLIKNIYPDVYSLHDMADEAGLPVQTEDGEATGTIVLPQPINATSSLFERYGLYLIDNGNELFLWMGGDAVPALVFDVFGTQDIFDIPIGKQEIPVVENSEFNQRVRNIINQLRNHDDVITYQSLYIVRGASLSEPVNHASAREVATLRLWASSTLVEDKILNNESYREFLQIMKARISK
Described as above.

The target in experiment [4] is T3, Sec23 (LexA DNA binding domain fusion, pLexPD) (UniProt P15303).
T3 sequence: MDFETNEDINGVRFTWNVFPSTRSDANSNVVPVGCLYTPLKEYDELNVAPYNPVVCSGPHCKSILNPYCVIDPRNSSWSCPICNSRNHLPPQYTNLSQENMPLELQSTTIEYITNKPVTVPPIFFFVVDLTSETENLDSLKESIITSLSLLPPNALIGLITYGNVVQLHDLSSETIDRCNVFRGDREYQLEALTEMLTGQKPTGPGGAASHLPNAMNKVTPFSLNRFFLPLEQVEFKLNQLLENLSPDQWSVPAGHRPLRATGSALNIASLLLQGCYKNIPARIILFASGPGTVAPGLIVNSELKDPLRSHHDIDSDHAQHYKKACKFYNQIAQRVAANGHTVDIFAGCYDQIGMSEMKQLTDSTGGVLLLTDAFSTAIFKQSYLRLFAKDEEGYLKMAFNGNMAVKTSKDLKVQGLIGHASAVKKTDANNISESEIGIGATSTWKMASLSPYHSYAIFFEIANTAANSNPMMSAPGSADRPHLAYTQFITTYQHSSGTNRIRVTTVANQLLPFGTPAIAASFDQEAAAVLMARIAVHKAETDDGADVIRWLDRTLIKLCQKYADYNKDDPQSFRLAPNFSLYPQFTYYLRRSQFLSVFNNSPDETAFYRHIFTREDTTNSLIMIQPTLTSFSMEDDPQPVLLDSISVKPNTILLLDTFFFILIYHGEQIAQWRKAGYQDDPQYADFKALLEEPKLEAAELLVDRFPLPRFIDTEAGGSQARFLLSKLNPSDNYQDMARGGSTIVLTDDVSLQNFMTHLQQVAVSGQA
The description is as above.

B1: Lst4 longin domain from K. lactis (aa58-226) (domain or fragment, UniProt Q6CXP4 58-226)
chain: NDRLHNGGFRLIISQELGHVTSRNNYQVVLDHSSVNFHTGAHIPLNELKDYIFGSSIRTIDYSASSDKIKVVKSANIVLFTRIFYLNEKSTLRIAISCCVTDDVLPVLTECWPHISSFLDQCENTLLKYLAKNDTQFLPHDWKARNCIEVAAVLQTFQRKIIPLLSGYS
On to B1, for which, in experiment [1], the binding result is listed as “no binding”.

B2: Lst7 (GAL activation domain fusion, pACT2) (protein, UniProt P53237 1-242)
chain: MSSTVISLAHFCDKHGPRIISVTQSAEKGTLGEELLVPDYPTESYCESCLLQFPEESTRSMRCFIEDVPFITTQYSSIRYQLLNSIIKRAFSEETMIYDNMPFIFFDDLRGLNLVIGFKLYDENARGNERRYCFILTVDSRSHDDSMKMLSEHWNFIIGGFDKMIAYIKNIHKSEFLGKNKTVENNLETLNNNAFIGSYLRANKSKFGRNLVSLTDDKFLFVRIHKWNSFLLHTVMNENKLP
Regarding B2, the results for the binding entry in experiment [2], in experiment [3] and in experiment [4] were “binds”, “binds weakly” and “binds weakly”, respectively.
